Patent US20190367613A1 (JOUNCE THERAPEUTICS, published 2019)
These are yes or no findings as the source states them, for the method shown. Some results given as binding are weak or reduced against the parent protein; the word gives no strength.

Target: T1, Mouse (Mus musculus) ICOS (mouse) (UniProt Q9WVS0)
T1 sequence: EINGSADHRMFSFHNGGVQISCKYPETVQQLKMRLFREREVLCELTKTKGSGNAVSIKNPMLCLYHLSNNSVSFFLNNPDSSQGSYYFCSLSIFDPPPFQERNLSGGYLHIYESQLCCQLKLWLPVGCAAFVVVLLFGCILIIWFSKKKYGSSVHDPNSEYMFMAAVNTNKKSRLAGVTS
Assay: flow cytometry on mouse whole-blood CD4+ T cells stained with JTX-2011 DyLight650

B1: JTX-2011 (antibody, V domains shown)
VH: EVQLVESGGGLVQPGGSLRLSCAASGFTFSDYWMDWVRQAPGKGLVWVSNIDEDGSITEYSPFVKGRFTISRDNAKNTLYLQMNSLRAEDTAVYYCTRWGRFGFDSWGQGTLVTVSS
VL: DIVMTQSPDSLAVSLGERATINCKSSQSLLSGSFNYLTWYQQKPGQPPKLLIFYASTRHTGVPDRFSGSGSGTDFTLTISSLQAEDVAVYYCHHHYNAPPTFGPGTKVDIKR
binding: binds
